# Measured values reported in PubChem BioAssay AID248 (DTP/NCI, 2004).
# The list is a part of this screen's results and no random one: it is rich in T/C values a quarter to a half above the control, in often repeated tests (any T/C) and in doses without a T/C. Other doses and runs of a compound stand elsewhere. T/C gives the treated animals as a percentage of the vehicle group. For survival time, this PubChem deposit counts one and a half times the control or more as active, and values a quarter to a half above the control carry no call in these data; other NCI protocols may use other cut-offs. Schedule codes are those of the source, read here as Q, the interval in days (D) or hours (H), X, the number of doses. Signs of the kind (2×) count equal records among those shown. Some entries hold several experiments; the values are given in rising order.
# Tested on: L1210 leukemia ip in BDF1 mice, survival T/C
# Test: NCI In Vivo Anticancer Drug Screen. Data for tumor model L1210 Leukemia (intraperitoneal) in B6D2F1 (BDF1) mice
# Settings: T/C endpoint: mean survival time, higher T/C = longer survival
smiles,measurement,setting,value
O=C1C=CN(C2OC(CO)C(O)C2O)C(=O)C1 (configuration not stated),T/C,"dose: 3.0 mg/kg/injection, schedule: Q01DX009 (ip), vehicle: saline",135 % of control
same,T/C,"dose: 6.25 mg/kg/injection, schedule: Q01DX009 (ip), vehicle: saline",127 % of control
same,T/C,"dose: 7.2 mg/kg/injection, schedule: Q01DX009 (ip), vehicle: saline",129 % of control
same,T/C,"dose: 11.0 mg/kg/injection, schedule: Q01DX009 (ip), vehicle: saline",125 % of control
same,T/C,"dose: 12.5 mg/kg/injection, schedule: Q01DX009 (ip), vehicle: saline",127 % of control
same,T/C,"dose: 17.0 mg/kg/injection, schedule: Q01DX009 (ip), vehicle: saline",128 % of control
same,T/C,"dose: 17.0 mg/kg/injection, schedule: Q03HX024 (ip), vehicle: saline",137 % of control
same,T/C,"dose: 20.0 mg/kg/injection, schedule: Q01DX009 (ip), vehicle: saline, evaluated on day 5",106 and 118 % of control
same,T/C,"dose: 20.0 mg/kg/injection, schedule: Q01DX009 (ip), vehicle: saline, evaluated on day 45","106, 118, 119, 123, 133 % of control"
same,T/C,"dose: 20.0 mg/kg/injection, schedule: Q01DX009 (ip), vehicle: saline, evaluated on day 60",118 % of control
same,T/C,"dose: 22.0 mg/kg/injection, schedule: Q01DX009 (ip), vehicle: saline, evaluated on day 5",126 % of control
same,T/C,"dose: 22.0 mg/kg/injection, schedule: Q01DX009 (ip), vehicle: saline, evaluated on day 60",127 % of control
same,T/C,"dose: 22.0 mg/kg/injection, schedule: Q03HX024 (ip), vehicle: saline",126 % of control
same,T/C,"dose: 25.0 mg/kg/injection, schedule: Q01DX009 (ip), vehicle: saline, evaluated on day 30",136 % of control
same,T/C,"dose: 25.0 mg/kg/injection, schedule: Q01DX009 (ip), vehicle: saline, evaluated on day 45",125 and 130 % of control
same,T/C,"dose: 26.0 mg/kg/injection, schedule: Q03HX024 (ip), vehicle: saline",136 % of control
same,T/C,"dose: 26.4 mg/kg/injection, schedule: Q01DX009 (ip), vehicle: saline",125 % of control
same,T/C,"dose: 29.0 mg/kg/injection, schedule: Q01DX009 (ip), vehicle: saline",128 and 129 % of control
same,T/C,"dose: 30.0 mg/kg/injection, schedule: Q01DX009 (ip), vehicle: saline, evaluated on day 5",103 and 121 % of control
same,T/C,"dose: 30.0 mg/kg/injection, schedule: Q01DX009 (ip), vehicle: saline, evaluated on day 45","103, 126, 135 % of control"
same,T/C,"dose: 30.0 mg/kg/injection, schedule: Q01DX009 (ip), vehicle: saline, evaluated on day 60",121 % of control
same,T/C,"dose: 33.0 mg/kg/injection, schedule: Q01DX009 (ip), vehicle: saline, evaluated on day 5",130 % of control
same,T/C,"dose: 33.0 mg/kg/injection, schedule: Q01DX009 (ip), vehicle: saline, evaluated on day 60",130 and 139 % of control
same,T/C,"dose: 33.0 mg/kg/injection, schedule: Q03HX024 (ip), vehicle: saline",138 % of control
same,T/C,"dose: 37.5 mg/kg/injection, schedule: Q01DX009 (ip), vehicle: saline",126 and 134 % of control
same,T/C,"dose: 39.0 mg/kg/injection, schedule: Q03HX024 (ip), vehicle: saline",145 % of control
same,T/C,"dose: 39.6 mg/kg/injection, schedule: Q01DX009 (ip), vehicle: saline",134 % of control
same,T/C,"dose: 43.0 mg/kg/injection, schedule: Q01DX009 (ip), vehicle: saline",134 and 140 % of control
same,T/C,"dose: 44.0 mg/kg/injection, schedule: Q01DX009 (ip), vehicle: saline",134 % of control
same,T/C,"dose: 45.0 mg/kg/injection, schedule: Q01DX009 (ip), vehicle: saline, evaluated on day 5",107 and 116 % of control
same,T/C,"dose: 45.0 mg/kg/injection, schedule: Q01DX009 (ip), vehicle: saline, evaluated on day 45",107 and 130 % of control (2×)
same,T/C,"dose: 45.0 mg/kg/injection, schedule: Q01DX009 (ip), vehicle: saline, evaluated on day 60",116 % of control
same,T/C,"dose: 50.0 mg/kg/injection, schedule: Q01DX009 (ip), vehicle: saline, evaluated on day 5",130 % of control
same,T/C,"dose: 50.0 mg/kg/injection, schedule: Q01DX009 (ip), vehicle: saline, evaluated on day 30",130 % of control
same,T/C,"dose: 50.0 mg/kg/injection, schedule: Q01DX009 (ip), vehicle: saline, evaluated on day 45",129 % of control (2×)
same,T/C,"dose: 50.0 mg/kg/injection, schedule: Q01DX009 (ip), vehicle: saline, evaluated on day 60",130 and 135 % of control
same,T/C,"dose: 50.0 mg/kg/injection, schedule: Q03HX024 (ip), vehicle: saline",132 % of control
same,T/C,"dose: 58.0 mg/kg/injection, schedule: Q03HX024 (ip), vehicle: saline",145 % of control
same,T/C,"dose: 64.0 mg/kg/injection, schedule: Q01DX009 (ip), vehicle: saline",132 and 134 % of control
same,T/C,"dose: 67.0 mg/kg/injection, schedule: Q01DX009 (ip), vehicle: saline, evaluated on day 5",109 and 122 % of control
same,T/C,"dose: 67.0 mg/kg/injection, schedule: Q01DX009 (ip), vehicle: saline, evaluated on day 45","109, 134, 135, 142 % of control"
same,T/C,"dose: 67.0 mg/kg/injection, schedule: Q01DX009 (ip), vehicle: saline, evaluated on day 60",122 and 134 % of control
same,T/C,"dose: 75.0 mg/kg/injection, schedule: Q01DX009 (ip), vehicle: saline, evaluated on day 5",138 % of control
same,T/C,"dose: 75.0 mg/kg/injection, schedule: Q01DX009 (ip), vehicle: saline, evaluated on day 45",135 % of control (2×)
same,T/C,"dose: 75.0 mg/kg/injection, schedule: Q01DX009 (ip), vehicle: saline, evaluated on day 60",139 % of control
same,T/C,"dose: 75.0 mg/kg/injection, schedule: Q03HX024 (ip), vehicle: saline",137 % of control
same,T/C,"dose: 96.0 mg/kg/injection, schedule: Q01DX009 (ip), vehicle: saline",135 and 149 % of control
same,T/C,"dose: 100.0 mg/kg/injection, schedule: Q01DX009 (ip), vehicle: saline, evaluated on day 30",142 and 146 % of control
same,T/C,"dose: 100.0 mg/kg/injection, schedule: Q01DX009 (ip), vehicle: saline, evaluated on day 45","131, 135, 137 % of control (3×)"
same,T/C,"dose: 100.0 mg/kg/injection, schedule: Q01DX009 (ip), vehicle: saline, evaluated on day 60",131 % of control
same,T/C,"dose: 125.0 mg/kg/injection, schedule: Q01DX005 (ip), vehicle: other",135 % of control
same,T/C,"dose: 125.0 mg/kg/injection, schedule: Q01DX009 (ip), vehicle: saline",130 and 137 % of control
same,T/C,"dose: 132.0 mg/kg/injection, schedule: Q01DX009 (ip), vehicle: saline",136 and 147 % of control
same,T/C,"dose: 150.0 mg/kg/injection, schedule: Q01DX009 (ip), vehicle: saline, evaluated on day 45","124, 129, 164 % of control"
same,T/C,"dose: 150.0 mg/kg/injection, schedule: Q01DX009 (ip), vehicle: saline, evaluated on day 60",132 % of control
same,T/C,"dose: 200.0 mg/kg/injection, schedule: Q01DX009 (ip), vehicle: saline","145, 150, 151, 158 % of control"
same,T/C,"dose: 225.0 mg/kg/injection, schedule: Q01DX009 (ip), vehicle: saline, evaluated on day 45",127 % of control
